The source of these data is article PMC3163677.

By UniProt entry, the sequences of proteins in these tests, tags left out.
UniProt P14859: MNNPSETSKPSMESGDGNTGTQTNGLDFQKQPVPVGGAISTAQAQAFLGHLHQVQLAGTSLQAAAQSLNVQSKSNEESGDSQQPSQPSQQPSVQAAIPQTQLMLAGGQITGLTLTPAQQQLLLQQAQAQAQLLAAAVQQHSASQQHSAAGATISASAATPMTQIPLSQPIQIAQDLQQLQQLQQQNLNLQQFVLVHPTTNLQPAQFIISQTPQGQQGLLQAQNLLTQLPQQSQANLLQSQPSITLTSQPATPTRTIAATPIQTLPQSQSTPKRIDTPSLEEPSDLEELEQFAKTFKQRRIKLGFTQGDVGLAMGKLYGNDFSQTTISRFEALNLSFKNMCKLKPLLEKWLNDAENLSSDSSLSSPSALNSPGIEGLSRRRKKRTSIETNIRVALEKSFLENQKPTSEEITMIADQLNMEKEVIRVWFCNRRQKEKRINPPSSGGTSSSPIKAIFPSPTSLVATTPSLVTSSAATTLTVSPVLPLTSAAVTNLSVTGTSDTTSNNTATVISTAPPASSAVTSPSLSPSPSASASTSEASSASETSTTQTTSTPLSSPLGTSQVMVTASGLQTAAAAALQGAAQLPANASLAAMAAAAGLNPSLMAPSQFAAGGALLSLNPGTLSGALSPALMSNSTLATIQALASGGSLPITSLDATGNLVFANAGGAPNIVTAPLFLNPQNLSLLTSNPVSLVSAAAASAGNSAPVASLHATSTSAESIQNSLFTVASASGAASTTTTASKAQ
UniProt Q9H1A4: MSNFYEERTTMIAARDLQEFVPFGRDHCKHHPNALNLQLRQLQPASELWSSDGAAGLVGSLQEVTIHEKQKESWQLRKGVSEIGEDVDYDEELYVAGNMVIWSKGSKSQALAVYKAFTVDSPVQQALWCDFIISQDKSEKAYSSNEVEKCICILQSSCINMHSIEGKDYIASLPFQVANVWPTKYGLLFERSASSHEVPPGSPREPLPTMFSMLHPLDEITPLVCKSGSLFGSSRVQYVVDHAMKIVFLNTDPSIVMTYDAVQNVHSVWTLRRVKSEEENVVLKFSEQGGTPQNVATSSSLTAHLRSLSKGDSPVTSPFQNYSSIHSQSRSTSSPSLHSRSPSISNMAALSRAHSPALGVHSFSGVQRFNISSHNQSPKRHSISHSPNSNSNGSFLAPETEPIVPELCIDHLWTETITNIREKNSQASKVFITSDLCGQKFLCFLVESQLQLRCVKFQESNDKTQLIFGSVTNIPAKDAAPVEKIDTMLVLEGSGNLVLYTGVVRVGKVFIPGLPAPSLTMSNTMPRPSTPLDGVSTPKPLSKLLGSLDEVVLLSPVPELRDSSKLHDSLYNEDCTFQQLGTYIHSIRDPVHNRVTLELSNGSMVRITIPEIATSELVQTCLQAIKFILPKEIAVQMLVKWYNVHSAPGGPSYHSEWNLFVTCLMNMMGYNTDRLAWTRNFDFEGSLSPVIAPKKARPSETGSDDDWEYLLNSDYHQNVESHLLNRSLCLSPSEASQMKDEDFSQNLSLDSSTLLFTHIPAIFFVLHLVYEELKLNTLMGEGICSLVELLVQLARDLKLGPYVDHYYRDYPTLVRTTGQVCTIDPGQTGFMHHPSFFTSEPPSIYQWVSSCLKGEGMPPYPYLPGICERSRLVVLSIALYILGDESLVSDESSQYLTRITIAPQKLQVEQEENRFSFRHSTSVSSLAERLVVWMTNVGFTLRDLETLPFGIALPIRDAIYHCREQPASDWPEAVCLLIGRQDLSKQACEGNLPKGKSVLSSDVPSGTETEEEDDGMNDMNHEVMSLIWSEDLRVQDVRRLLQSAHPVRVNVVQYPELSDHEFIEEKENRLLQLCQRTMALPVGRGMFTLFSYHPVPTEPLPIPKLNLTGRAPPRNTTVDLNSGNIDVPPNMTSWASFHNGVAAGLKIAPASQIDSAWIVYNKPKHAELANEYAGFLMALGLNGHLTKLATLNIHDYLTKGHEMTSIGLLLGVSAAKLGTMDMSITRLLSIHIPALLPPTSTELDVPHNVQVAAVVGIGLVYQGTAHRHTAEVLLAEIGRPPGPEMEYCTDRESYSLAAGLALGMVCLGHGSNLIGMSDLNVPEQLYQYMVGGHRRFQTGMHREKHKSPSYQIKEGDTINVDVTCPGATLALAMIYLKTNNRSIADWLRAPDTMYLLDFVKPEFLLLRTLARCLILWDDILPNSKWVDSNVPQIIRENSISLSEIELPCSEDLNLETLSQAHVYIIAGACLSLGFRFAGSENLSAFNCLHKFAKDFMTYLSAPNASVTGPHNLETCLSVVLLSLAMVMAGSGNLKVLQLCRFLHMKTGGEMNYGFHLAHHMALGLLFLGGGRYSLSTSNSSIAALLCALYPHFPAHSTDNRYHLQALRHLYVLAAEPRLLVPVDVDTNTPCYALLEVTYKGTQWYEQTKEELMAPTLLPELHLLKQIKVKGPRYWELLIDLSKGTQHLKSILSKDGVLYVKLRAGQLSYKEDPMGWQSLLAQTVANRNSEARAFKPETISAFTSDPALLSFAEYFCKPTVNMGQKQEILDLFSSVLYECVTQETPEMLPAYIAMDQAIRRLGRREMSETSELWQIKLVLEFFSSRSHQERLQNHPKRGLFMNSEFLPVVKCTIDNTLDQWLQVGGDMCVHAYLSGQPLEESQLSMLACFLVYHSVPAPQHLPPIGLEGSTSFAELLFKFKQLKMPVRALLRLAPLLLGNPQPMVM

This test concerns the target Oct1 phosphorylated at serine 335 (Oct1^pS335) (human (endogenous in HeLa)) (UniProt P14859). The test can be described thus: co-IP; whole cell extracts from nocodozole-arrested (18 hr) HeLa cells immunoprecipitated with anti-Oct1^pS335 antibodies; Western blot with anti-Cdk11, anti-APC1 or pan-Oct1; 500 ug extract, 4 ug antibody, IP buffer (50 mM Tris pH 8.0, 20% glycerol, 0.5 mM EDTA, 0.1% NP-40, 1 mM DTT), overnight at 4 C, magnetic beads. In general terms: In western blotting, separated proteins are transferred to a membrane and probed.

Results are given in words; binding and its absence hold for the method and conditions named. In cells and extracts the contact can be indirect. Some binding calls cover weakened binding; strength is not graded here.

As for “anaphase-promoting complex large subunit APC1 (from UniProt Q9H1A4 1-1944)”, the binding entry was “binds”.
